Results deposited as PubChem BioAssay AID652259 (Drosophila RNAi Screening Center, 2013)

Aim: 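Identify new Wingless signalling regulators in fly cells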 (primary screen)
Cells: Drosophila clone 8 imaginal disc epithelial cells
Reagents: long dsRNA against Drosophila genes
Conditions: pathway stimulated by co-transfected Wingless expression plasmid
Read-out: 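Firefly luciferase from a tcf-site Wingless reporter, measured alongside co-transfected Renilla luciferase that tracks transfection; pathway stimulated by a Wingless plasmid; the firefly-to-Renilla ratio is not deposited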
Reading the numbers: firefly reporter light: higher = more Wg reporter light, before normalisation; Renilla control light: higher = more transfected or surviving cells
Rule for the call: 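Strong candidates differ from their plate mean by at least two out of four per-plate statistical tests; weak candidates meet just one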
Meaning of the calls: active = candidate regulator (raises or lowers reporter); inactive = not a candidate
The deposit covers about 22,000 reagents; below is an unselected part of those with a known target gene and a result. Over the whole deposit, 233 (1.1%) got an active call. 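Light values are raw, unnormalised plate reads; the ratio scores behind the reporter calls were not deposited.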 Reagents against one gene are numbered here. Names joined by + are all predicted targets of the reagent. The record does not give: the amount of reagent, the time to read-out, the dose of the treatment.

no.	gene	dsRNA no.	firefly reporter light, replicate 1	firefly reporter light, replicate 2	Renilla control light, replicate 1	Renilla control light, replicate 2	activity call
1	CG12121 (GeneID 31866)	1	21939		10999		inactive
2	Psi (GeneID 36889)	1	9040		3065		inactive
3	Fen1 (GeneID 36887)	1	4979		3132		inactive
4	blo (GeneID 35866)	1	6230		1938		inactive
5	Cpr78Ca (GeneID 40352)	1	17104		6064		inactive
6	smid (GeneID 38824)	1	3117	10184	2164	4501	inactive
7	Oatp58Db (GeneID 37544)	1	2198	7017	613	3158	inactive
8	CG10904 (GeneID 37817)	1	3896	8275	993	2699	inactive
9	CG33725 (GeneID 3772600)	1	2896		1521		inactive
10	CG44774 (GeneID 31424)	1	17841		7989		inactive
11	CG33483 (GeneID 2768693)	1	4372		1500		inactive
12	CG1503 (GeneID 33090)	1	1792	4962	688	2002	inactive
13	wake (GeneID 42676)	1	10004		11738		inactive
14	wake (GeneID 42676)	2	10229		11707		inactive
15	Jon65Aiv (GeneID 38682)	1	2443	10762	1333	4392	inactive
16	CG7509 (GeneID 38579)	1	3938		2242		inactive
17	mAChR-B (GeneID 40955)	1	17301		4128		inactive
18	l(2)dtl (GeneID 46326)	1	20131		5356		inactive
19	CG31809 (GeneID 318954)	1	16979		6982		inactive
20	Or83c (GeneID 40744)	1	15757		3221		inactive
21	fig (GeneID 43511)	1	5732		2326		inactive
22	Scgalpha (GeneID 34135)	1	2987	6363	928	3112	inactive
23	CG42268 (GeneID 39145)	1	5328		2537		inactive
24	CG42268 (GeneID 39145)	2	5356		2240		inactive
25	CG42268 (GeneID 39145)	3	3.02e5	3.59e5	1.25e5	1.43e5	inactive
26	lncRNA:CR43421 (GeneID 12798123)	1	24695		17241		inactive
27	Rbbp5 (GeneID 40239)	1	15410		3686		inactive
28	CG10089 (GeneID 39517)	1	4756		1382		inactive
29	CG10089 (GeneID 39517)	2	6525		2341		inactive
30	Hsp70Bb + Hsp70Bbb	1	21687	8.53e5	5201	2.92e5	inactive
31	Tnpo-SR (GeneID 33465)	1	8788		4282		inactive
32	CG15390 (GeneID 33422)	1	2534	4218	1028	2198	inactive
33	kug (GeneID 40191)	1	5466		2069		inactive
34	Gyc89Da (GeneID 42001)	1	26918		6857		inactive
35	dgt5 (GeneID 36364)	1	5649		2032		inactive
36	CG13590 (GeneID 37907)	1	4519	8933	1457	4016	inactive
37	CG13126 (GeneID 34323)	1	2272	6025	897	3052	inactive
38	Prp4k (GeneID 38032)	1	9360		2661		inactive
39	CG11902 (GeneID 43070)	1	26388	6.70e5	21488	3.42e5	inactive
40	Wnt5 (GeneID 32838)	1	13660		6587		inactive
41	stw (GeneID 35494)	1	2907	3956	758	1692	inactive
42	stw (GeneID 35494)	2	2217	3892	733	2163	inactive
43	stw (GeneID 35494)	3	6.63e5	7.34e5	1.56e5	1.21e5	inactive
44	CG14829 (GeneID 38792)	1	1945	10153	1430	4800	inactive
45	CG31029 (GeneID 318562)	1	4760		1920		inactive
46	Eaf (GeneID 35660)	1	23622		5382		inactive
47	Eaf (GeneID 35660)	2	21800		8183		inactive
48	Eaf (GeneID 35660)	3	4.83e5	4.48e5	1.75e5	2.08e5	inactive
49	Ir100a (GeneID 43753)	1	22280	7.08e5	18874	2.46e5	inactive
50	Hibch (GeneID 41869)	1	14835		3004		inactive
51	botv (GeneID 37198)	1	18422		5126		inactive
52	CG11700 (GeneID 31564)	1	5509		2101		inactive
53	CG8010 (GeneID 32921)	1	2829	9097	964	3420	inactive
54	CR13656 (GeneID 8674041)	1	5629		1425		inactive
55	CR13656 (GeneID 8674041)	2	19387		15323		inactive
56	CG10752 (GeneID 39467)	1	2811		1832		inactive
57	tHMG1 (GeneID 42650)	1	44680		9190		inactive
58	CG43132 (retired record) (GeneID 12797985)	1	25622		11848		inactive
59	Buffy (GeneID 36251)	1	7771		3168		inactive
60	side-II (GeneID 3346206)	1	21973		12116		inactive
61	side-II (GeneID 3346206)	2	17104		10714		inactive
62	side-II (GeneID 3346206)	3	3024	6763	1604	3683	inactive
63	side-II (GeneID 3346206)	4	3734	10202	2163	5941	inactive
64	side-II (GeneID 3346206)	5	4192	11651	1290	5936	inactive
65	side-II (GeneID 3346206)	6	3.81e5	3.91e5	1.26e5	95227	inactive
66	ng4 (GeneID 31301)	1	21921		16404		inactive
67	CG6867 (GeneID 32782)	1	21409	6.62e5	14257	3.34e5	inactive
68	scpr-A + scpr-C + scpr-B	1	20018		5222		inactive
69	Ugt35C1 (GeneID 53507)	1	23722		5708		inactive
70	CG6495 (GeneID 34486)	1	6193		2017		inactive
71	CG14340 (GeneID 33287)	1	2696	7735	816	2592	inactive
72	CG16741 (GeneID 59232)	1	13483		2602		inactive
73	Jon99Ciii (GeneID 43543)	1	4230		3176		inactive

Just “firefly reporter light, replicate 1”, for 12 of the entries above:
Fen1 (GeneID 36887): 4979
blo (GeneID 35866): 6230
Cpr78Ca (GeneID 40352): 17104
smid (GeneID 38824): 3117
Oatp58Db (GeneID 37544): 2198
CG10904 (GeneID 37817): 3896
CG33725 (GeneID 3772600): 2896
CG44774 (GeneID 31424): 17841
CG33483 (GeneID 2768693): 4372
CG1503 (GeneID 33090): 1792
wake (GeneID 42676) #1: 10004
wake (GeneID 42676) #2: 10229
